{
  "source": "patent US6280768A",
  "about": "“Berberine alkaloids as a treatment for chronic protozoally induced diarrhea” (PRM Pharmaceuticals, Inc., priority 1997, dated 2001)",
  "key": {"[1]": {"conditions": "in vivo; cited from earlier work"}, "[2]": {"test_system": "a broad range of protozoa", "experiment": "In vitro assays on protozoa, overall statement (Example 1)", "assay_type": "cell-based"}, "[3]": {"conditions": "oral; cited from earlier work"}, "Entamoeba histolytica": {"test_system": "Entamoeba histolytica", "conditions": "cited from earlier work"}, "Trichomonas vaginalis": {"test_system": "Trichomonas vaginalis", "conditions": "cited from earlier work"}, "Giardia lamblia": {"test_system": "Giardia lamblia", "conditions": "cited from earlier work"}, "[4]": {"test_system": "several types of fungi and bacteria", "conditions": "cited from earlier work"}, "[5]": {"test_system": "several of the protozoal strains which cause leishmaniasis", "conditions": "cited from earlier work"}, "G. lamblia": {"test_system": "G. lamblia", "conditions": "orally administered; cited from earlier work"}, "diarrhea": {"test_system": "diarrhea", "experiment": "Prophylactic use of berberines in HIV infected patients (Example 7)", "assay_type": "in vivo, human", "conditions": "low dose of Example 2, two months, 25 patients", "procedure": "Twenty five (25) HIV infected patients, 18 years of age or older, not presenting with chronic diarrhea, are selected. Blood specimens are evaluated to confirm that each patient is HIV seropositive.\nEach of the twenty five (25) patients receives a treatment with berberine according to the low dose of Example 2 for a period of two months."}, "[6]": {"test_system": "cutaneous species of leishmanial parasites", "conditions": "intradermal administration; cited from earlier work"}},
  "note": "At least one compound was matched to its structure with a doubt left.",
  "data": [
    {"smiles": "COc1ccc2cc3[n+](cc2c1OC)CCc1cc2c(cc1-3)OCO2", "note": "[berberine, 5,6-Dihydro-9,10-dimethoxybenzo[g]-1,3-benzodioxolo[5,6-a]quinolizinium]", "values": [
      {"measurement": "usefulness in treatment of acute diarrhea", "setting": "[1]", "result": "useful in the treatment of acute diarrhea"},
      {"measurement": "antiprotozoal activity", "setting": "[2]", "result": "effective antiprotozoal agent against a broad range of protozoa"},
      {"measurement": "antisecretory and antimicrobial properties", "setting": "[3]", "result": "has both antisecretory and antimicrobial properties"},
      {"measurement": "in vitro activity", "setting": "Entamoeba histolytica", "result": "shows in vitro activity"},
      {"measurement": "in vitro activity", "setting": "Trichomonas vaginalis", "result": "shows in vitro activity"},
      {"measurement": "in vitro activity", "setting": "Giardia lamblia", "result": "shows in vitro activity"},
      {"measurement": "in vitro activity", "setting": "[4]", "result": "shows in vitro activity"},
      {"measurement": "in vitro activity", "setting": "[5]", "result": "shows in vitro activity"},
      {"measurement": "safety and efficacy against acute diarrhea", "setting": "G. lamblia", "result": "safe and effective agent against acute diarrhea"},
      {"measurement": "development of diarrhea", "setting": "diarrhea", "result": "None of the patients develops diarrhea during the treatment"},
      {"measurement": "healing of sores", "setting": "[6]", "result": "Healing of sores"}
    ]}
  ]
}
